Experimental data taken from US20190195880A1, “METHODS AND KITS FOR PREDICTING THE SENSITIVITY OF A SUBJECT SUFFERING OF RENAL CANCER TO CANCER TREATMENT” (CENTRE NATIONAL DE LA RECHERCHE SCIENTIFIQUE (CNRS), priority 2016, published 2019).
At least one compound was matched to its structure with a doubt left.

Columns and labels:
[1] = tested on: metastatic ccRCC; experiment: TORAVA trial (retrospective validation cohort): survival versus plasmatic CXCL5/CXCL7; type: in vivo, human; conditions: patients with CXCL7 plasma levels above 250 ng/ml
Description: All patients gave written informed consent. The SUVEGIL trial (NCT00943839) was a multicenter prospective single-arm study. […] Patient characteristics and results have been previously described (Negrier et al., 2011).
The CXCL5 and CXCL7 cut-off points (respectively 0.1 and 250 ng/ml) for PFS and OS were determined using smoothing spline curves analysis (R software, version 3.2.2). […] The predictive cut-off points determined in the SUVEGIL cohort were used for the TORAVA cohort.

[2] = tested on: PDL-1 on tumor cells; conditions: Liu et al.; cited from earlier work

In the case of `CCN(CC)CCNC(=O)c1c(C)[nH]c(/C=C2\C(=O)Nc3ccc(F)cc32)c1C` [sunitinib], the PFS [1] is listed as “not reached” and the “PDL-1 on tumor cells” value [2] is listed as “induction”.
